Reference: patent publication US5015629A, “Tissue repair” (University of Southern California, priority 1990, dated 1991)
Part of at least one peptide drawing is inferred or uncertain, most often the ends.

What was measured:
cornea = experiment: Rabbit corneal pocket angiogenesis; format: in vivo, New Zealand White female rabbits
[1] = test system: bovine aortic endothelial cells; experiment: Mitogenesis, 3H-thymidine incorporation; format: cell-based
bovine endothelial cells = format: cell-based
Description: In a second example, the effects of angiotensin II on proliferation (mitogenesis) and directional migration (chemotaxis) of endothelial cells were determined. In this regard, it is important to consider that tissue repair requires proper neovascularization, and that new blood vessel growth for wound repair requires endothelial cell replication, migration and orientation. Wound healing factors must be able to stimulate chemotaxis and cell proliferation in addition to initiating new blood vessel growth. The proliferation (mitogenesis) and the directional orientation of such cells (chemotaxis) was studied in vitro using bovine aortal endothelial cells. […] Background radioactivity (noncell-associated) was assessed by removing some filters immediately after the addition of cells prior to cellular migration, and processing these control filters the same way as the test filters. […] The latter was calculated by the following formula: [formula] where R equals the radioactivity in cpm associated with each test filter, B equals the cpm obtained from the background filters, T equals the cpm obtained from a volume (V) of cells in suspension at a known concentration (C) and S equals the cpm obtained from the cell supernate (noncellular, or unbound radioactivity). […]

[2] = test system: occluded full-thickness excision; experiment: Healing of an occluded full-thickness excision in rats; format: in vivo
wound tissue = experiment: Neovascularization of wound tissue, summary statement
[3] = light microscopy, treated versus controls

## CC[C@H](C)[C@H](NC(=O)[C@H](Cc1ccc(O)cc1)NC(=O)[C@@H](NC(=O)[C@H](CCCNC(=N)N)NC(=O)[C@@H](N)CC(=O)O)C(C)C)C(=O)N[C@@H](Cc1c[nH]cn1)C(=O)N1CCC[C@H]1C(=O)N[C@@H](Cc1ccccc1)C(=O)O [angiotensin II]
cornea; all rabbits, by ten days after the injection, Hydron-angiotensin II solution
  intracorneal vessels, length from limbus toward injection site: greater than 1 mm
cornea; rabbits, 20 μl angiotensin II-Hydron solution injected into cornea, evaluated fifteen days
  angiogenesis in cornea: stimulated angiogenesis in all rabbits
cornea; rabbits, angiotensin II-Hydron solution in cornea
  time at which invasion of blood vessels was macroscopically visible: third post-injection day
cornea; rabbits, by day nine
  extension of blood vessels into the site of the injection from the limbus: 3 mm
[1]; 1 NG OF AF, 0 hr
  3H thymidine incorporation (mitotic activity of endothelial cells): 135 ± 52 CPM/10^4 CELLS
[1]; 1 NG OF AF, 24 hr
  3H thymidine incorporation (mitotic activity of endothelial cells): 5,764 ± 324 CPM/10^4 CELLS
[1]; 1 NG OF AF, 48 hr
  3H thymidine incorporation (mitotic activity of endothelial cells): 18,620 ± 1,564 CPM/10^4 CELLS
[1]; 3 NG OF AF, 0 hr
  3H thymidine incorporation (mitotic activity of endothelial cells): 115 ± 21 CPM/10^4 CELLS
[1]; 3 NG OF AF, 24 hr
  3H thymidine incorporation (mitotic activity of endothelial cells): 15,821 ± 191 CPM/10^4 CELLS
[1]; 3 NG OF AF, 48 hr
  3H thymidine incorporation (mitotic activity of endothelial cells): 29,825 ± 2,024 CPM/10^4 CELLS
[1]; 10 NG OF AF, 0 hr
  3H thymidine incorporation (mitotic activity of endothelial cells): 185 ± 21 CPM/10^4 CELLS
[1]; 10 NG OF AF, 24 hr
  3H thymidine incorporation (mitotic activity of endothelial cells): 19,621 ± 158 CPM/10^4 CELLS
[1]; 10 NG OF AF, 48 hr
  3H thymidine incorporation (mitotic activity of endothelial cells): 27,642 ± 2,642 CPM/10^4 CELLS
[1]; .1 NG OF AF, 0 hr
  3H thymidine incorporation (mitotic activity of endothelial cells): 165 ± 18 CPM/10^4 CELLS
[1]; .3 NG OF AF, 0 hr
  3H thymidine incorporation (mitotic activity of endothelial cells): 194 ± 21 CPM/10^4 CELLS
[1]; .3 NG OF AF, 24 hr
  3H thymidine incorporation (mitotic activity of endothelial cells): 2,987 ± 211 CPM/10^4 CELLS
[1]; .3 NG OF AF, 48 hr
  3H thymidine incorporation (mitotic activity of endothelial cells): 24,628 ± 987 CPM/10^4 CELLS
[1]; concentrations of from three to ten ng/ml
  increase in the proliferation of endothelial cells: 11/2
Bovine endothelial cells; endothelial cell migration
  dilutions at which chemotactic: 0.3 to 10 ng/mL
Bovine endothelial cells; higher concentration of angiotensin II on the side of the membrane opposite the cells
  cell migration with positive gradient: directional migration toward the higher concentration
[2]; 0.2 ml of five micrograms per milliliter daily for eight days, subdermal, Hydron or saline, versus controls
  wound contraction: significant increase
[2]; [3]
  number of fibroblasts and inflammatory cells in granulation tissue: similar
  number of new vessels and vessel orientation perpendicular to the wound surface in granulation tissue: markedly increased
[2]; treated wounds compared with control wounds
  appearance of granulation tissue: redder, spongier, more friable and bled more heavily
Wound tissue; solution containing as low as 5 nanograms per milliliter
  rate of neovascularization in wound tissue: increased
Wound tissue; solution containing at least 5 micrograms per milliliter
  capillary proliferation: significant increase
Wound tissue; solutions containing from 1 to 600 micrograms per milliliter
  angiogenic action: significant angiogenic action
